A short description of series [1]: general procedure: Fmoc solid-phase peptide synthesis; HMPA-PEGA resin; HCTU/DIPEA. To be noted: whole synthesis, overall, scale of the general procedure 0.2 mmol.
Series [2] can be described thus: general procedure: Fmoc solid-phase peptide synthesis; PL-PEGA resin (Polymer Labs) with HMPA handle; HCTU/DIPEA. To be noted: whole synthesis.

As for “GLP-1 NH2-L-His-L-Ala-urea-9-37 (EGTFTSDVSSYLEGQAAKEFIAWLVKGRG; N-terminus of Glu9 joined through a urea carbonyl (from carbonyldiimidazole) to the amino group of NH2-L-Ala-L-His-carboxamide; the dipeptide runs in the reversed direction and ends in a carboxamide)”, the isolated yield entry in series [1] is reported as “about 10% overall yield”.

Turning to L-His-NH-NH-CH2-C(O)-Glu9-37, the difficulty met result in series [2] (scale of the general procedure 0.2 mmol) was “This was found to be 39% of theoretical, and the coupling was repeated”.

Regarding L-His-NH—NH—CH(CH3)—C(O)-Glu9-37, in series [2] (scale 0.2 mmol), the difficulty met entry was “Fmoc release of the resin showed a failed coupling”.
